Source: publication doi:10.1101/2025.06.10.658772 (bioRxiv, 2025)
Results are given in words; binding and its absence hold for the method and conditions named. In cells and extracts the contact can be indirect. Some entries that bind do so weakly or less than the wild type. For some assays here: Where a sequence is shown, tags or fusion partners need not be part of it.

Chains of the proteins cited; added tags and fusions are not shown.
UniProt P32121: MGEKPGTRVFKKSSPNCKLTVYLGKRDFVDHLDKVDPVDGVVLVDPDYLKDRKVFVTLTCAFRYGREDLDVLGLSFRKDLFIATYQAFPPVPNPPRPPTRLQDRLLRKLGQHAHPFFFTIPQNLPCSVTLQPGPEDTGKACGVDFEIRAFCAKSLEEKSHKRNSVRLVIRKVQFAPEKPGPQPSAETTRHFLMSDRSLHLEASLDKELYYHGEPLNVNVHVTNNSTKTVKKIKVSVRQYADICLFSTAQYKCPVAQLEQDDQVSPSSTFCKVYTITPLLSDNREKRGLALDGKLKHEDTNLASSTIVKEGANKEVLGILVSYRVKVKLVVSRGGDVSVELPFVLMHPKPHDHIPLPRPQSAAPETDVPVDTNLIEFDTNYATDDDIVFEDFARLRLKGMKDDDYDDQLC

B1: N-terminally 6×His-tagged wild-type (WT) human CXCL17 (ligand)
chain: SSLNPGVARGHRDRGQASRRWLQEGGQECECKDWFLRAPRRKFMTVSGLPKKQCPCDHFKGNVKKTRHQRHHRKPNKHSRACQQFLKQCQLRSFALPL

Tests used:
[1] = biological target: C-terminally large NanoLuc fragment (LgBiT)-fused Dr-GPR25 (zebrafish (Danio rerio)); assay: split reporter
[2] = biological target: N-terminally secretory LgBiT (sLgBiT)-fused Dr-GPR25 (zebrafish (Danio rerio)); assay: split reporter

Molecule	binding [1]	binding [2]
N-terminally SmBiT-fused human β-arrestin 2 (ARRB2) (from UniProt P32121 1-409)	binds	
B1		binds
